Assay results taken from patent US20200239586A1.
Substitutions are numbered along the chain they refer to. Results are given in words; binding and its absence hold for the method and conditions named. Some entries that bind do so weakly or less than the wild type. For part of these data: Sequences can lack the tags named with a protein.

Columns and labels:
[1] = target: T1, phage-displayed hFn14 sub-domain 2 (human); test: phage ELISA, mAb coated (Method 1)
T1 sequence: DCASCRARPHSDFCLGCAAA

[2] = target: T2, His-tagged recombinant hFn14 mutant R58A (human) (UniProt Q9NP84); test: ELISA on coated His-tagged protein
T2 sequence: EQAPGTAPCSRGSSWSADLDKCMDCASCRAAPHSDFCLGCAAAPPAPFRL

[3] = target: T3, recombinant Fn14-Fc (human) (UniProt Q9NP84); test: ELISA on coated Fn14-Fc, mAb at 1 µg/ml
T3 sequence: T2 sequence with A31R

[4] = target: T1, phage-displayed hFn14 sub-domain 2 (human); test: phage ELISA, antibody on plate, 10-fold phage dilutions
[5] = target: T3, recombinant Fn14-Fc (human); test: ELISA, antigen coated at 2 µg/mL, primary antibody 1 µg/mL
[6] = target: T1, phage-displayed hFn14 sub-domain 2 (human); test: phage ELISA, antibody on plate, highest phage concentration
[7] = target: T2, His-tagged recombinant hFn14 mutant R58A (human); test: ELISA with purified His-tagged hFn14 R58A; x axis 'Log (c)' without unit, µg/ml by the legend
[8] = target: T3, recombinant Fn14-Fc (human); test: Western blot
[9] = target: T3, recombinant Fn14-Fc (human); test: ELISA on coated Fn14-Fc
[10] = target: T3, recombinant Fn14-Fc (human); test: Western blot of Fn14-Fc
[11] = target: T3, recombinant Fn14-Fc (human); test: ELISA, Fn14-Fc on plate, dilution series of CRCBT-06-001

Measured: binding

B1: CRCBT-06-002 (antibody, IgG1, V domains shown)
VH: EVKLQQSGGGLVQPGGSMKLSCVASGFTFSYYWMNWVRQSPEQGLEWIAEIRLQSNDYPTHYAESVKGRFTISRDDSKNSVYLQMNNLRPEDTGIYYCACRYADYFDHWGQGTTLTVSS
VL: DTVLTQSPASLVVSLGQRATISCRASQSVSTSDYSYIHWYQQKPGQPPKFLIKYASNRDSGVPARFSGSGSGTDFTLNIHPVEEDDTAIYYCQHSWEIPPTFGAGTKLELQR
not listed: [8] | [9] | [10] | [11]
binds: all other assays above

B2: CRCBT-06-001 (antibody, IgG2b, V domains shown)
VH: QVQLQQSGGGLVQPGGSMKLSCIASGFTFSSYWMSWVRQSPEKGLEWVAEIRSKSDNYATHYAESVKGKFTISRDDSKSRFFLQMNNLRAEDTGIYYCSSTYADYFHYWGQGTDLTVSS
VL: DIVMTQTPASLAVSLGQRATISCRASQSVSTSTYSYMHWYQQKPGQPPKLLIKYASSLESGVPARFSGSGSGTDFTLNIHPVEEDDTATYYCQHSWEIPYTFGGGTKLEIKR
not listed: [3]
binds: all other assays above

B3: CRCBT-06-005 (antibody, IgG2b, V domains shown)
VH: B1 VH with E1Q, K3Q, Q6E
VL: B2 VL with M4L, P8T, A12T, K43T, K49T, L50V, A64T, D85E
not listed: [8] | [9] | [10] | [11]
binds: all other assays above

B4: CRCBT-06-007 (antibody, IgG2b, V domains shown)
VH: QVKLEESGGVLVQPGGSMKLSCIASGFSFSKYWMNWVRQSPEKGLEWVAEIRVKSNNYATHYAESVKGRFIISRDDSKSSVYLQMNNLRAEDTGIYYCTKSYADYFDYWGQGTTLTVSS
VL: B2 VL with T7S, P8T, T33S, L50V, S57N, D85E, T87A
binds: [1] | [3] | [4] | [5]

B5: CRCBT-06-006 (antibody, IgG2a, V domains shown)
VH: B1 VH with E1Q, K3Q, Q6E
VL: B2 VL with M4I, T7S, A12T, K43T, K49T, L50V, A64T, D85E
binds: [1] | [3] | [4] | [5] | [6]
